The list shows a part of the results.
What was measured:
Assay in all cases: log2 fold change, soluble protein after heating vs DMSO (PISA); higher = thermal stabilisation; K562 lysate, 10 uM; active = over 0.2 and 3.5 SD of the protein, either way, in both replicates (recomputed)
vemurafenib = compound: CCCS(=O)(=O)Nc1ccc(F)c(C(=O)c2c[nH]c3ncc(-c4ccc(Cl)cc4)cc23)c1F [vemurafenib]
Outline: (§1)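 K562 pellets were dounce-homogenised in PBS pH 7.4 containing 1 mM MgCl2, and the crude extract, at 1 mg/mL protein, was exposed to 10 μM compound for 30 min. Aliquots were heated for 3 min across 48°C-58°C, pooled, brought to 0.5% NP-40 at 4°C and spun at 21,000xg for 90 min, with the supernatant taken as soluble protein. TMTpro 16plex LC-MS/MS with equalised channel sums quantified that protein. Values are log-two fold changes in thermal stability relative to solvent controls, taken from duplicates.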

The chains behind the UniProt entries cited, without tags or fusion partners. Where a name states a change or a piece, a line headed by the entry shows the natural chain unless it says otherwise.
UniProt P49366: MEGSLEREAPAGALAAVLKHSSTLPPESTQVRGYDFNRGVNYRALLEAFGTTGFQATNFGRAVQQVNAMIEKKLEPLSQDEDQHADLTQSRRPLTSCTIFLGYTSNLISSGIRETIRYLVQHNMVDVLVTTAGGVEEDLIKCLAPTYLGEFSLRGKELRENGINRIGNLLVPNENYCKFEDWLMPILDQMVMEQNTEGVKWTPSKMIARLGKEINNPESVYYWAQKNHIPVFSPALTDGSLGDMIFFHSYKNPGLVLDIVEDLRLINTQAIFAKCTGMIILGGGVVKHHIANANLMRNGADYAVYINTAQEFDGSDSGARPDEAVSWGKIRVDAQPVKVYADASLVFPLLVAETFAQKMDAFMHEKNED
UniProt Q02127: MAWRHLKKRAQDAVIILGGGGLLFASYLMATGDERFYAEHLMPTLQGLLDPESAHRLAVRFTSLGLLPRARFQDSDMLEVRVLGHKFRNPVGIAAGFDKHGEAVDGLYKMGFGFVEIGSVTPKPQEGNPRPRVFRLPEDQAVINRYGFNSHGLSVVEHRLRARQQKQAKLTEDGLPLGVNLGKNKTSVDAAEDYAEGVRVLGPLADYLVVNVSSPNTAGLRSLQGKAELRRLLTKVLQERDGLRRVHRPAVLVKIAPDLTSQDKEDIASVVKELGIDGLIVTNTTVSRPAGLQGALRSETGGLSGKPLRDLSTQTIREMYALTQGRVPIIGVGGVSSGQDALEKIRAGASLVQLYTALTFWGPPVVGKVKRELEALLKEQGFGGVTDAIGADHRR
UniProt O75937: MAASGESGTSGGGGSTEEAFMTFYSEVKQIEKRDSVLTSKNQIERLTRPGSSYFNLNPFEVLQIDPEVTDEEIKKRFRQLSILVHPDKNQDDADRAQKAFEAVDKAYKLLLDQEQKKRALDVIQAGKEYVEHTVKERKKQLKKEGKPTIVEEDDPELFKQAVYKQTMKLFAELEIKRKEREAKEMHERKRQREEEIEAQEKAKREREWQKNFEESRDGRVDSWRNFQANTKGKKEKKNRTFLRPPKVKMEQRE
UniProt Q6P158: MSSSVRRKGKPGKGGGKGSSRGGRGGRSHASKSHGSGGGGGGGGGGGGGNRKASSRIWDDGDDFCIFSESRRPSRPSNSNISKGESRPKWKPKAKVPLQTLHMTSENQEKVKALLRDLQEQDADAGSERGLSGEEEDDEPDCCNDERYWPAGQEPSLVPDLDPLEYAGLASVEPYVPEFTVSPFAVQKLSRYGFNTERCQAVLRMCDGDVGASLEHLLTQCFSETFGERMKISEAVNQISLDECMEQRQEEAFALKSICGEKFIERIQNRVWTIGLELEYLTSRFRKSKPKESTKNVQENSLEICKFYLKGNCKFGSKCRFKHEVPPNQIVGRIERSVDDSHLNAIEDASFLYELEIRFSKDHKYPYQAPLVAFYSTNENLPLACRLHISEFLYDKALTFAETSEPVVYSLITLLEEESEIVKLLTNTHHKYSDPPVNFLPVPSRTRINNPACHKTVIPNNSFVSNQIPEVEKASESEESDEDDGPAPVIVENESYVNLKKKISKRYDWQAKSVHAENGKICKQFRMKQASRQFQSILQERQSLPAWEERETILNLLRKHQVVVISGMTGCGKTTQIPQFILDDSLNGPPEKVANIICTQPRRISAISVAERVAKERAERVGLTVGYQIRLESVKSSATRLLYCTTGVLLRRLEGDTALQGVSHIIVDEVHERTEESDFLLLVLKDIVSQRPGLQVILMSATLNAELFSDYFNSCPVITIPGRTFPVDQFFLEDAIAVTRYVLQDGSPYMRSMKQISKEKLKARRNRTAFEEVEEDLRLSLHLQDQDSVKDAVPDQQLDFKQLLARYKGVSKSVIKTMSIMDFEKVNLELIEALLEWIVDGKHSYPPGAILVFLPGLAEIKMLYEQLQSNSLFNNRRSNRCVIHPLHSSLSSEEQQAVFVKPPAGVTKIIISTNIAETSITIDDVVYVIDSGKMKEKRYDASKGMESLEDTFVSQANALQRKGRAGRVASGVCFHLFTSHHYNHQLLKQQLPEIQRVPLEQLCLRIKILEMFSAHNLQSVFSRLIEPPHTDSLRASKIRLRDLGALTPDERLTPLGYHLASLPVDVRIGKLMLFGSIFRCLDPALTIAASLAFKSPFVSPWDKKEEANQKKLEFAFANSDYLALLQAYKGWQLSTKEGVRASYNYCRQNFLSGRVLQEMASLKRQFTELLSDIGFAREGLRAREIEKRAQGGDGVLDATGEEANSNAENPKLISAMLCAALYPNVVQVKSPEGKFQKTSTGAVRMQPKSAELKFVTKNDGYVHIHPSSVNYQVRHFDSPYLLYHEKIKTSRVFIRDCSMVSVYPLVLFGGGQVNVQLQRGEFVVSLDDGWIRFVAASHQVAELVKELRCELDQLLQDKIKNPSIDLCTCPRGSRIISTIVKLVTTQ
UniProt Q5JSL3: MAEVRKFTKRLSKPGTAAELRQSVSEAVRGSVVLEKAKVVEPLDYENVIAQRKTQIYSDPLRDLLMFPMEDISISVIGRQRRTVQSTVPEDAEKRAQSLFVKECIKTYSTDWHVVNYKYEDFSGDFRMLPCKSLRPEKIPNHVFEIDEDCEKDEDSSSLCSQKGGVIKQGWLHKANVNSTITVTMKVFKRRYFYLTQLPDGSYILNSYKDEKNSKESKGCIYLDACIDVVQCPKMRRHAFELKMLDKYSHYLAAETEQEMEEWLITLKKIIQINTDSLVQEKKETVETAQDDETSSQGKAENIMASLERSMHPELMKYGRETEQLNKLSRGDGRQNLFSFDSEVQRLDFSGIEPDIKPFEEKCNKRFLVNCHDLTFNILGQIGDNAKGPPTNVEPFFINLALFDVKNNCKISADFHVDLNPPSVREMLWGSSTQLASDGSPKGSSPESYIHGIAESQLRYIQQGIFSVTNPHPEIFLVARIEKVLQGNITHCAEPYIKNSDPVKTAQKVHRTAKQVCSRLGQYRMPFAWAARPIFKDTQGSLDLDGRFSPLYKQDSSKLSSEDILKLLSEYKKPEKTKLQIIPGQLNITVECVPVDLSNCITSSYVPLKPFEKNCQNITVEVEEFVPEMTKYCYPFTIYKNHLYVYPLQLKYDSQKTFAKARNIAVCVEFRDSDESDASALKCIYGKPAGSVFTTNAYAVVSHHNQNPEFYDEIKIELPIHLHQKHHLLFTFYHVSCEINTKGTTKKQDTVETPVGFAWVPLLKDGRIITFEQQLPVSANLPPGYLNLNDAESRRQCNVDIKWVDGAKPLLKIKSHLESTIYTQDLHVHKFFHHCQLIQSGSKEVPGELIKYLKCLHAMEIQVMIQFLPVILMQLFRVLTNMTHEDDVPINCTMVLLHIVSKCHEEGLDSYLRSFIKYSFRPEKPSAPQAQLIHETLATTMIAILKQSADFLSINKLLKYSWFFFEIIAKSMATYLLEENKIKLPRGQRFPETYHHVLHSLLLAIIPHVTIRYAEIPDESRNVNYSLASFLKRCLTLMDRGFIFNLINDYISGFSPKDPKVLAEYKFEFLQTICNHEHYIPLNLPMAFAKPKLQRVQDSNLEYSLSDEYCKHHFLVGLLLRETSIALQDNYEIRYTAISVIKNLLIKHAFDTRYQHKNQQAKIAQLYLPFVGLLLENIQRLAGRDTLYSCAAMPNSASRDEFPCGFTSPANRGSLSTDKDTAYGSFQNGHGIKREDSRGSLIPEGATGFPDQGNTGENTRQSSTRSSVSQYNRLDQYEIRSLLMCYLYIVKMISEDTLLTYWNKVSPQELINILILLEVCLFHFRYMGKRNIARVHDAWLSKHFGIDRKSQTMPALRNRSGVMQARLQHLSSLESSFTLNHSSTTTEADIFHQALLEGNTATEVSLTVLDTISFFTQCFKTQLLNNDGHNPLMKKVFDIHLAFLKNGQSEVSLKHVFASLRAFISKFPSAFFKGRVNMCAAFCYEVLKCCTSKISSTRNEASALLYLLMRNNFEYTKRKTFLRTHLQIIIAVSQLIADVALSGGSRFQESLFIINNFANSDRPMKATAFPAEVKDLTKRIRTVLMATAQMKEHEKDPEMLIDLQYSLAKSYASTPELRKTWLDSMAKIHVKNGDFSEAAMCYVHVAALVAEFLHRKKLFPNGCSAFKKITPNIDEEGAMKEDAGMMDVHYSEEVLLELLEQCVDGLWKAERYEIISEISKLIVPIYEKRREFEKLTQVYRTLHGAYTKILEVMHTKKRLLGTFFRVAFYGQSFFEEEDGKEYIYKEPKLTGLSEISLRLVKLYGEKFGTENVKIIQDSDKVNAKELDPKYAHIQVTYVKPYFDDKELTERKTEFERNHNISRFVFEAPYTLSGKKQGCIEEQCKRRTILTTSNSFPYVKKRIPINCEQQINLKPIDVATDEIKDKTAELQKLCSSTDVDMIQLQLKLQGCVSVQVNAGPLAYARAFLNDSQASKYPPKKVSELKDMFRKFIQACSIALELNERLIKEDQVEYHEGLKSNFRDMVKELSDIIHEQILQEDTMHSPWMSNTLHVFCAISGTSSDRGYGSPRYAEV
UniProt Q8IX18: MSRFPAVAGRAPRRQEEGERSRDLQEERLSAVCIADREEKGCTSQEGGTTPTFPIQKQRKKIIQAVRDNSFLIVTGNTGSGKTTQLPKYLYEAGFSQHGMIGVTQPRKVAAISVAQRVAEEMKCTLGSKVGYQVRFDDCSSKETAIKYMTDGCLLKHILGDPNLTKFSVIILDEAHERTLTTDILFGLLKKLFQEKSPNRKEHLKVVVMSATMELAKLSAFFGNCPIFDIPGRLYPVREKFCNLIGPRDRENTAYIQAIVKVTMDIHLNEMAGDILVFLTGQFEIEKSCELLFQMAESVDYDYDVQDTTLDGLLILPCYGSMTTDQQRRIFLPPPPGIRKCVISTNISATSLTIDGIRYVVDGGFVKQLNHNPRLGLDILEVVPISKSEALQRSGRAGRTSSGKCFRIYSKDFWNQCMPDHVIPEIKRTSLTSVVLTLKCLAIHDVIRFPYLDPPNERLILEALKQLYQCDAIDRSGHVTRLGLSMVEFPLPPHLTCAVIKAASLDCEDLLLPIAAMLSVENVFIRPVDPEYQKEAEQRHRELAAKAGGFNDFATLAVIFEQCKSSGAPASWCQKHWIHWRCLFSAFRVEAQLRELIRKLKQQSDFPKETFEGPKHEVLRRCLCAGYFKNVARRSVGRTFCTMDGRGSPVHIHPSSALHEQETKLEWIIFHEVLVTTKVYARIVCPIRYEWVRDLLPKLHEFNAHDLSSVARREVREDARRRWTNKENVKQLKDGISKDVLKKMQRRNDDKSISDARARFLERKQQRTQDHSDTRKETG
UniProt O00429, whole entry, looked up: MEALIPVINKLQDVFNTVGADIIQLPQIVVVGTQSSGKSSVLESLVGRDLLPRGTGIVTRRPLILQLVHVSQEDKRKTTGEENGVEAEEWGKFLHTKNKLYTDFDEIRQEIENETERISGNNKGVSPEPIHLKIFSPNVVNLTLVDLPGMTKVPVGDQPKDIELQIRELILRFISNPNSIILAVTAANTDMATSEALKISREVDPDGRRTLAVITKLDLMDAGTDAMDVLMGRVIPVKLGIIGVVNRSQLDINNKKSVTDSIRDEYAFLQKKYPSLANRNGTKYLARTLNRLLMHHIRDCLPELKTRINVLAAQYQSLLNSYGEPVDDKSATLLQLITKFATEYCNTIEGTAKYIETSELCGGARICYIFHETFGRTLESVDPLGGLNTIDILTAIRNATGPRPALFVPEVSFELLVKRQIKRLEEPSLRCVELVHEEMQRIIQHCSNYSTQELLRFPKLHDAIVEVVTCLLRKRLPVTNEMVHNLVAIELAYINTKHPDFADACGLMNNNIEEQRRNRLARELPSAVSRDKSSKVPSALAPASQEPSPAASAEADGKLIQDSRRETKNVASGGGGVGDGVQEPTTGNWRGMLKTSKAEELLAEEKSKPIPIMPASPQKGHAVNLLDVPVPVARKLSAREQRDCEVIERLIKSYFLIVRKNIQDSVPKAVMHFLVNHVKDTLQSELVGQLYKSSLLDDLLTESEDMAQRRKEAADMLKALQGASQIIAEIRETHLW
UniProt Q9BVM2: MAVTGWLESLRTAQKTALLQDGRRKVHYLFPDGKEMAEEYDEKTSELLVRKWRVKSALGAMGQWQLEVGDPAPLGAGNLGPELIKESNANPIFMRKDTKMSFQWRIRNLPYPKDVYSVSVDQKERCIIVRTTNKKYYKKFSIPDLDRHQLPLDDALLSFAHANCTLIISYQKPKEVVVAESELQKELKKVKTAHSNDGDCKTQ

[1] = compound: CCCS(=O)(=O)Nc1ccc(F)c(C(=O)c2c[nH]c3ncc(Cl)cc23)c1F
Outline: as §1

barasertib = compound: CCN(CCCOc1ccc2c(Nc3cc(CC(=O)Nc4cccc(F)c4)[nH]n3)ncnc2c1)CCOP(=O)(O)O [barasertib]
Outline: as §1

[2] = compound: CC[C@@H]1C(=O)N(C)c2cnc(Nc3ccc(C(=O)NC4CCN(C)CC4)cc3OC)nc2N1C1CCCC1
Outline: as §1

volasertib = compound: CC[C@@H]1C(=O)N(C)c2cnc(Nc3ccc(C(=O)N[C@H]4CC[C@H](N5CCN(CC6CC6)CC5)CC4)cc3OC)nc2N1C(C)C [volasertib]
Outline: as §1

[3] = compound: CCn1c(C(=O)N(C2CC2)C2CC2)cc2c3c(ncn3C)c(Nc3cc(C)n(C)n3)nc21
Outline: as §1

[4] = compound: CCn1cc(-c2ccnc3[nH]c(-c4cccc(CN(C)C)c4)cc23)c(-c2ccc(NC(=O)N(C)C)cc2)n1
Outline: as §1

[5] = compound: CN1CCC(CNc2ccc3ncc(-c4cccc(OC(F)(F)F)c4)n3n2)CC1
Outline: as §1

saracatinib = compound: CN1CCN(CCOc2cc(OC3CCOCC3)c3c(Nc4c(Cl)ccc5c4OCO5)ncnc3c2)CC1 [saracatinib]
Outline: as §1

sotrastaurin = compound: CN1CCN(c2nc(C3=C(c4c[nH]c5ccccc45)C(=O)NC3=O)c3ccccc3n2)CC1 [sotrastaurin]
Outline: as §1

alvocidib = compound: CN1CC[C@H](c2c(O)cc(O)c3c(=O)cc(-c4ccccc4Cl)oc23)[C@H](O)C1 [alvocidib]
Outline: as §1

Tubastatin A = compound: CN1CCc2c(c3ccccc3n2Cc2ccc(C(=O)NO)cc2)C1 [Tubastatin A]
Outline: as §1

[6] = compound: CNC(=O)C1=CC=CC=C1NC2=NC(=NC=C2Cl)NC3=C(C=C(C=C3)N4CCOCC4)OC
Outline: as §1

defactinib = compound: CNC(=O)c1ccc(Nc2ncc(C(F)(F)F)c(NCc3nccnc3N(C)S(C)(=O)=O)n2)cc1 [defactinib]
Outline: as §1

[7] = compound: CNc1nc(-c2ccc3c(N)n[nH]c3c2)cc(N2C[C@@H](C(=O)NC3CCCCC3)CC[C@H]2C)n1
Outline: as §1

encorafenib = compound: COC(=O)N[C@@H](C)CNc1nccc(-c2cn(C(C)C)nc2-c2cc(Cl)cc(NS(C)(=O)=O)c2F)n1 [encorafenib]
Outline: as §1

[8] = compound: COC(=O)[C@H](CCSC)NC(=O)C1=C(C=C(C=C1)NC[C@H](CS)N)C2=CC=CC=C2
Outline: as §1

alisertib = compound: COc1cc(Nc2ncc3c(n2)-c2ccc(Cl)cc2C(c2c(F)cccc2OC)=NC3)ccc1C(=O)O [alisertib]
Outline: as §1

[9] = compound: COc1cc2nc(-c3cc(F)ccc3O)nc(N[C@@H]3CNC[C@H]3C(C)(C)O)c2cc1OC
Outline: as §1

gefitinib = compound: COc1cc2ncnc(Nc3ccc(F)c(Cl)c3)c2cc1OCCCN1CCOCC1 [gefitinib]
Outline: as §1

Measured: log2 fold change

DHPS (UniProt P49366)
inactive: vemurafenib 0.006 | [1] -0.006 | barasertib -0.032 | [2] 0.027 | volasertib 0.033 | [3] -0.018 | [4] -0.047 | [5] 0.039 | saracatinib -0.012 | sotrastaurin 0.008 | alvocidib -0.011 | Tubastatin A 0.064 | [6] 0.016 | defactinib -0.005 | [7] -0.009 | encorafenib -0.024 | [8] -0.006 | alisertib -0.033 | [9] 0 | gefitinib -0.013

DHODH (UniProt Q02127)
inactive: vemurafenib -0.011 | [1] -0.029 | barasertib -0.032 | [2] 0.014 | volasertib 0.015 | [3] -0.01 | [4] -0.056 | [5] 0.064 | saracatinib -0.003 | sotrastaurin 0.029 | alvocidib -0.023 | Tubastatin A 0.033 | [6] -0.002 | defactinib 0.022 | [7] 0.026 | encorafenib -0.022 | [8] -0.039 | alisertib -0.016 | [9] 0.011 | gefitinib -0.027

DNAJC8 (UniProt O75937)
inactive: vemurafenib -0.023 | [1] -0.005 | barasertib -0.014 | [2] 0.059 | volasertib 0.018 | [3] 0.056 | [4] 0.204 | [5] -0.115 | saracatinib -0.018 | sotrastaurin -0.013 | alvocidib 0.023 | Tubastatin A 0.066 | [6] -0.014 | defactinib -0.009 | [7] -0.031 | encorafenib -0.017 | [8] -0.002 | alisertib -0.01 | [9] -0.031 | gefitinib 0.038

DHX57 (UniProt Q6P158)
inactive: vemurafenib 0.019 | [1] 0.031 | barasertib 0.032 | [2] -0.045 | volasertib -0.023 | [3] 0.056 | [4] -0.021 | [5] 0.009 | saracatinib -0.033 | sotrastaurin 0.039 | alvocidib 0.005 | Tubastatin A -0.039 | [6] -0.021 | defactinib 0 | [7] -0.004 | encorafenib -0.013 | [8] 0.052 | alisertib -0.016 | [9] -0.006 | gefitinib 0.062

DOCK11 (UniProt Q5JSL3)
inactive: vemurafenib 0.02 | [1] 0.019 | barasertib 0.048 | [2] -0.013 | volasertib -0.037 | [3] -0.019 | [4] -0.077 | [5] -0.004 | saracatinib -0.008 | sotrastaurin 0.036 | alvocidib -0.02 | Tubastatin A -0.044 | [6] 0.011 | defactinib 0.013 | [7] -0.024 | encorafenib 0.02 | [8] -0.035 | alisertib 0.017 | [9] 0.007 | gefitinib -0.009

DHX40 (UniProt Q8IX18)
inactive: vemurafenib -0.009 | [1] 0.061 | barasertib 0.052 | [2] -0.052 | volasertib 0.048 | [3] 0.013 | [4] -0.083 | [5] 0.011 | saracatinib -0.016 | sotrastaurin 0.041 | alvocidib 0.017 | Tubastatin A -0.1 | [6] -0.01 | defactinib 0.107 | [7] -0.047 | encorafenib 0.022 | [8] 0.04 | alisertib -0.078 | [9] -0.025 | gefitinib 0.051

DNM1L isoform 6 (UniProt O00429)
inactive: vemurafenib 0.02 | [1] -0.007 | barasertib 0.002 | [2] -0.002 | volasertib -0.023 | [3] 0.026 | [4] 0.079 | [5] -0.063 | saracatinib 0.016 | sotrastaurin -0.017 | alvocidib 0.01 | Tubastatin A 0.031 | [6] 0.018 | defactinib -0.008 | [7] 0.002 | encorafenib 0.008 | [8] 0.035 | alisertib 0.006 | [9] 0.01 | gefitinib -0.021

DPCD (UniProt Q9BVM2)
inactive: vemurafenib -0.053 | [1] 0.038 | barasertib 0.019 | [2] 0.041 | volasertib -0.002 | [3] -0.035 | [4] -0.075 | [5] 0.001 | saracatinib 0.021 | sotrastaurin 0.023 | alvocidib 0.012 | Tubastatin A -0.036 | [6] 0.054 | defactinib 0 | [7] -0.027 | encorafenib 0.01 | [8] -0.087 | alisertib 0.016 | [9] -0.008 | gefitinib -0.021
